Assay results reported in patent US12702649B2, “Method of treating cystic fibrosis airway disease” (priority 2016, dated 2026).

Details: sputum mixed 1:1 v/v with 200 mM NaHCO3, compared to equimolar NaCl, 5% CO2

With `O=C([O-])O.[Na+]` [NaHCO3] the “CF sputum pH” value was “increased sputum pH”.
